# Results as given in PubChem BioAssay AID504444 (National Center for Advancing Translational Sciences (NCATS), 2011).
# Values joined by “and” are separate entries in the source; they are usually repeats but may differ in a detail not shown here. Equal entries are not always repeated. Among all 360,000 compounds or so, about 7,500 (2.1%) were called active. This list was built around the results that the source calls inconclusive (neither active nor inactive); the mix of calls is not that of the screen. The call rests on the fitted dose curve; in most records, active means well fitted inhibition curve with a large enough effect; inconclusive means small, poorly fitted or top-dose-only effect, or effect the other way; inactive means flat fitted curve, though single readings scatter. Potencies of inconclusive entries are doubtful fits and often do not repeat.
# Experiment: Nrf2 qHTS screen for inhibitors; further: nearly all actives have a fitted effect of over 60% in size
# Conditions: A549 ARE-Fluc reporter, luciferase luminescence, 18-24 h; series mostly up to 46 µM
# Procedure, shortened: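 Two sequential reads on A549 ARE_Fluc cells exposed to compound for 18-24 h: a CellTiter-Fluor fluorescence read for viability, then a luciferase luminescence read for Nrf2/ARE activity.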
# Potency means the concentration at half of the fitted maximal effect.
row,Compound,Potency
1,COc1ccccc1C(=O)Nc1ccc2nc(SCC(=O)N3CCCc4ccccc43)sc2c1,active: 18.4 µM
2,CCCCn1c(O)c(C(CC)=NCc2ccc3c(c2)OCO3)c(=O)[nH]c1=O,"inconclusive: 29.1 µM [falling, single point]"
3,CC1OC(OC2CC(O)C3(CO)C4C(O)CC5(C)C(C6=CC(=O)OC6)CCC5(O)C4CCC3(O)C2)C(O)C(O)C1O (configuration not stated),active: 0.058 µM
4,Cc1ccc(-n2nc(C)c3c2NC(=O)CSC3c2ccc(O)cc2)cc1Cl (configuration not stated),"inconclusive: 32.6 µM [falling, partial curve, poor fit]"
5,CCOC(=O)C(=CNc1ccc(C(O)(C(=O)OCC)C(F)(F)F)cc1C)C(=O)OCC (configuration not stated),"inconclusive: 29.1 µM [falling, single point]"
6,COc1cccc(-n2nnc3c(sc4nc(C)cc(C)c43)c2=O)c1,"inconclusive: 2.31 µM [activator, partial curve, poor fit]"
7,CCCCSc1nc2c(cnn2-c2ccccc2)c(=O)n1N,"inconclusive: 29.1 µM [activator, single point]"
8,COc1ccc(NC2CC(=O)N(C(C)C)C2=O)cc1 (configuration not stated),"inconclusive: 5.17 µM [activator, partial curve]"
9,CC12CCC3C(CC=C4CC(O)CCC43C)C1C/C(=C\c1cccc(F)c1)C2=O (configuration not stated),"inconclusive: 14.6 µM [falling, partial curve, poor fit]"
10,CCCNC(=O)N1[C@H]2CC[C@@H]1C(C(=O)OC)=C(c1ccc(OC(F)(F)F)cc1)C2,"inconclusive: 29.1 µM [falling, single point]"
11,O=c1cccc2n1CC1CC2CN(Cc2c(F)cccc2Cl)C1 (configuration not stated),inactive
12,Cc1ccc(S(=O)(=O)N2CCCCC2)cc1NC(=O)Nc1ccc(Cl)cc1Cl,"inconclusive: 6.51 µM [falling, single point]"
13,O=C(COc1ccc(Cl)cc1Cl)N1CCN(C/C=C/c2ccccc2)CC1,"inconclusive: 29.1 µM [falling, single point]"
14,COc1ccccc1OCCCn1cc(C=O)c2ccccc21,"inconclusive: 2.06 µM [activator, partial curve]"
15,Cc1cc(C(=O)CS(=O)(=O)c2ccc(F)cc2)cc(C)c1OC(=O)N(C)C,"inconclusive: 9.2 µM [activator, partial curve, poor fit]"
16,CN1c2ccc([N+](=O)[O-])cc2CC2(C(=O)NC(=O)N(c3ccc(Br)cc3)C2=O)C1c1ccccc1 (configuration not stated),inactive
17,CCCC1(CCC)C(=O)NC(=NCc2ccccc2)NC1=O,"inconclusive: 29.1 µM [falling, single point]"
18,Cc1cc(/C=C2\C(=O)NC(=O)N(c3cccc(F)c3)C2=O)c(C)n1-c1ccc(C(=O)O)c(Cl)c1,inactive
19,C=CCn1c(O)c(C(CC)=NCc2cc(OC)cc(OC)c2)c(=O)[nH]c1=O,"inconclusive: 8.2 µM [falling, partial curve]"
20,COc1cc2c(cc1OC)[C@H]1C(=O)c3ccc4c(c3O[C@H]1CO2)C[C@@H](C(C)(C)O)O4,"inconclusive: 18.4 µM [falling, single point]"
21,CCCCCc1cc(O)c2c3c(c(=O)oc2c1)CN(C)CC3,inactive
22,Cc1ccc(OP2(=O)Nc3cc(C)c(C)cc3S2)cc1 (configuration not stated),"inconclusive: 9.2 µM [activator, partial curve]"
23,O=C1NC2C(O)C(O)C(O)C(O)C2c2cc3c(c(O)c21)OCO3 (configuration not stated),active: 0.92 µM

# Four neighbouring records from above:
row,Compound,Potency
20,COc1cc2c(cc1OC)[C@H]1C(=O)c3ccc4c(c3O[C@H]1CO2)C[C@@H](C(C)(C)O)O4,"inconclusive: 18.4 µM [falling, single point]"
21,CCCCCc1cc(O)c2c3c(c(=O)oc2c1)CN(C)CC3,inactive
22,Cc1ccc(OP2(=O)Nc3cc(C)c(C)cc3S2)cc1 (configuration not stated),"inconclusive: 9.2 µM [activator, partial curve]"
23,O=C1NC2C(O)C(O)C(O)C(O)C2c2cc3c(c(O)c21)OCO3 (configuration not stated),active: 0.92 µM

# Next entries follow:

row,Compound,Potency
1,CCCCOc1ccc(CN2CCN(CC)CC2)cc1,"inconclusive: 18.4 µM [activator, partial curve, poor fit]"
2,COc1cccc(OC)c1-c1nn2c(-c3n[nH]c4c3CCC4)nnc2s1,"inconclusive: 6.51 µM [falling, partial curve, poor fit] and inconclusive: 8.2 µM [falling, partial curve, poor fit]"
3,CC1(C)CN=C(Nc2ccc(F)c(F)c2)S1,inactive
4,CN1C(=O)NC(c2cccc(O)c2)C(C(=O)c2cccs2)C1(O)C(F)(F)F (configuration not stated),"inconclusive: 23.1 µM [activator, single point]"
5,O=C(Oc1ccnc2cc(Cl)ccc12)N1CCOCC1,"inconclusive: 2.91 µM [falling, partial curve]"
6,CCc1ccc(-n2c(O)c(/C=N/N3CCCCC3c3cccnc3)c(=O)[nH]c2=O)cc1 (configuration not stated),"inconclusive: 1.64 µM [falling, full curve, poor fit]"
7,COc1cc(O)c(C(=O)O)c(-c2cc(O)c(O)cc2C)c1,inactive
8,Cc1cccc2c1=NC(=O)/C(=C/c1c(O)[nH]c(=O)[nH]c1=O)C=2,inactive
9,Cc1nn(C(C)(C)C)c(C)c1/C=N/OC(=O)Nc1ccc(Cl)c(Cl)c1,active: 1.84 µM
10,CCN(CC)CCCNC(=O)c1c(O)c2ccccc2n(Cc2ccccc2)c1=O,"inconclusive: 2.91 µM [activator, full curve]"
11,COc1ccc(-n2ccnc(NCCc3ccc(Cl)cc3)c2=O)cc1OC,"inconclusive: 20.6 µM [falling, partial curve, poor fit]"
12,O=[N+]([O-])c1ccc(C2[C@H]3C(c4ccccc4)=NC4(CCCC4)N23)cc1 (some centres not stated),"inconclusive: 2.31 µM [falling, partial curve, poor fit]"
13,O=C1NC(=O)N(CCc2ccc(F)cc2)C(=O)/C1=C\C=C\c1ccccc1,inactive
14,COCCNC(=O)N1[C@H]2CC[C@@H]1C(C(=O)OC)=C(c1ccc(-c3ccccc3)c(F)c1)C2,active: 18.4 µM
15,Nc1ccc2ccc3cccc[n+]3c2c1,active: 13 µM
16,N#Cc1cccc(NC(=O)CSc2nc3c(cc2C#N)N2CCC3CC2)c1,"inconclusive: 11.6 µM [activator, partial curve]"
17,CCCCOP(=O)(CN1CCOCC1)OCCCC,inactive
18,Cc1nc2cc(-c3ccc(Cl)cc3)nn2c(C)c1CCC(=O)N1CCC2(CC1)OCCO2,"inconclusive: 2.06 µM [falling, full curve]"
19,O=[N+]([O-])c1cccc2c([As](=O)(O)O)cccc12,inactive
20,COC(=O)C1=C(c2ccc3ccccc3c2)C[C@@H]2CC[C@H]1N2C(=O)N1CCOCC1,"inconclusive: 20.6 µM [falling, single point]"
21,CCC(=NCc1cc(OC)cc(OC)c1)c1c(O)n(C2CCCCC2)c(=O)[nH]c1=O,"inconclusive: 20.6 µM [falling, partial curve, poor fit]"
22,O=[N+]([O-])c1oc2ccc3ccccc3c2c1CCO,active: 18.4 µM
23,CCOC(=O)c1c(N)n(CCCOC(=O)c2ccco2)c2nc3ccccc3nc12,"inconclusive: 20.6 µM [falling, single point]"

row,Compound,Potency
1,O=C(Nc1cccc(Cl)c1)OCC#CCN1CCCC1,inactive
2,Cc1cc(Br)c(NC(=O)CN2CC=C(c3ccccc3)CC2)c(Br)c1,"inconclusive: 29.1 µM [activator, single point]"
3,Cc1ccc(C(C)(C)NC(=O)C2CCC(=O)N(C3CCCCCC3)C2)cc1 (configuration not stated),"inconclusive: 3.26 µM [activator, full curve, poor fit]"
4,Cc1ccc(Cn2nnnc2CN2CCC(n3nnc4cc(C)ccc43)CC2)cc1,"inconclusive: 18.4 µM [falling, single point]"
5,Cc1c(C(=O)NCCC2=CCCCC2)oc2ccc(S(=O)(=O)N3CCC4(CC3)OCCO4)cc12,active: 7.31 µM
6,C[C@H]1C[C@@H](C)C(=O)[C@@H]([C@H](O)CC2CC(=O)NC(=O)C2)C1,active: 0.411 µM
7,NC(N)=NC(=O)c1nc(Cl)c(N)nc1N,"inconclusive: 0.0041 µM [activator, full curve, poor fit]"
8,COC(=O)C1=C(c2ccc(-c3ccccc3)c(F)c2)C[C@@H]2CC[C@H]1N2C(=O)NCc1cc(C)oc1C(F)(F)F,"inconclusive: 23.1 µM [falling, single point]"
9,S=C(S)N1CCCC1,active: 5.8 µM
10,C=C1[C@H]2CC[C@H]3[C@]4(C)C[C@H](O[C@H]5O[C@H](CO)[C@@H](OS(=O)(=O)O)[C@H](OS(=O)(=O)O)[C@H]5OC(=O)CC(C)C)C[C@@H](C(=O)O)[C@H]4CC[C@]3(C2)[C@H]1O,"inconclusive: 0.0041 µM [activator, full curve, poor fit]"
11,CC(Oc1ccc(Br)cc1)C(=O)N(Cc1nc(-c2ccccc2)no1)C(C)C (configuration not stated),"inconclusive: 18.4 µM [falling, single point]"
12,N=C1c2ccccc2CN1CC(=O)c1ccccc1,"inconclusive: 29.1 µM [activator, single point]"
13,Nc1c(C(=O)NCc2ccco2)c2nc3ccccc3nc2n1CCN1CCOCC1,"inconclusive: 29.1 µM [falling, single point]"
14,C[C@]12CC[C@H]3[C@@H](CC[C@]4(O)C[C@@H](O)CC[C@]34C=O)[C@@]1(O)CC[C@@H]2C1=CC(=O)OC1,active: 0.259 µM
15,Cc1noc(C(=O)Nc2sc3c(c2C#N)CCC3)c1Cl,"inconclusive: 29.1 µM [falling, single point]"
16,Cc1cc(OC(=O)c2ccco2)c2c3c(c(=O)oc2c1)CCCC3,inactive
17,Cc1ccccc1-n1c(/C=C/c2ccc(O)cc2)nc2ccccc2c1=O,"inconclusive: 20.6 µM [falling, single point]"
18,CN1C(=O)C(=Cc2ccccc2OCc2ccccc2Cl)C(=O)N(C)C1=O,inactive
19,CCOC(=O)C1(CCc2ccccc2)CCN(Cc2csc(C(C)=O)c2)CC1,active: 14.6 µM
20,CCOC(=O)c1ccccc1C(=O)OCC,inactive
21,CC(C)(C)c1ccc(OCC(=O)Nc2ccc(Cl)cc2C(=O)c2ccccc2)cc1,inactive
